In the supplement of paper PMC10849652:
This is one part of the list.

Protein sequences, listed by entry. Tags and fused reporters are not part of them. Lines headed by an entry give the natural chain unless they say otherwise; changes in a name come on top.
UniProt P07951, whole entry, looked up: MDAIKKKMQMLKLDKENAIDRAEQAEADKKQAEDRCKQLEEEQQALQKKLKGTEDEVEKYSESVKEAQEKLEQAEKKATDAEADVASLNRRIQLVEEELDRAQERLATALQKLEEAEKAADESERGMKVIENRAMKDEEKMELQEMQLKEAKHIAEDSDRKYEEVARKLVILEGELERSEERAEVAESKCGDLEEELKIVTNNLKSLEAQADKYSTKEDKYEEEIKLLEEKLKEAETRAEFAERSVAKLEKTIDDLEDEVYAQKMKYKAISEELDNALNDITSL
UniProt Q7L0Y3: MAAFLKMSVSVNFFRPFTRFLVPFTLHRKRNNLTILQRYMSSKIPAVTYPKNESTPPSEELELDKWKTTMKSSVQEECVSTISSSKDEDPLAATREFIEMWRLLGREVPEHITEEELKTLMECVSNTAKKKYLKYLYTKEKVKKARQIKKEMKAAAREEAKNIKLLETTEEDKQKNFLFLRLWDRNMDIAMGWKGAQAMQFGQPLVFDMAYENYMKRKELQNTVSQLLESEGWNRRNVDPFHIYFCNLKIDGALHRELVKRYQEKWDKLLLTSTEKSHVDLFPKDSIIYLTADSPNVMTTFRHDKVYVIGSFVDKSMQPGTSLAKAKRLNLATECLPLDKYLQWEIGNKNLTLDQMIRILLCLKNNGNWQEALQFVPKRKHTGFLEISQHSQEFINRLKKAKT
UniProt Q8NCE0: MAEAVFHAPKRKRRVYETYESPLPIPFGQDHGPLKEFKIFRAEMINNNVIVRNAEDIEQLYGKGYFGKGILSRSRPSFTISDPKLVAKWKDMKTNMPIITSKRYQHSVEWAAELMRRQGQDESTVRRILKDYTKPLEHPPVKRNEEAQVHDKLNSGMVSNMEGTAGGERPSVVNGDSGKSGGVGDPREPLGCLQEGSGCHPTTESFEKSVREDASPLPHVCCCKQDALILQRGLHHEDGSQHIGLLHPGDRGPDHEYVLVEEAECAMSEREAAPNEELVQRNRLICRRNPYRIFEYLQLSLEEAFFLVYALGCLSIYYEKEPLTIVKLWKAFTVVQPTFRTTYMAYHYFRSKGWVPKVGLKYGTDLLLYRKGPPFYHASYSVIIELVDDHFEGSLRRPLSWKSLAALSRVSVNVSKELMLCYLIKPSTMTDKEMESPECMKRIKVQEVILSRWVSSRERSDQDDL
UniProt O43617, whole entry, looked up: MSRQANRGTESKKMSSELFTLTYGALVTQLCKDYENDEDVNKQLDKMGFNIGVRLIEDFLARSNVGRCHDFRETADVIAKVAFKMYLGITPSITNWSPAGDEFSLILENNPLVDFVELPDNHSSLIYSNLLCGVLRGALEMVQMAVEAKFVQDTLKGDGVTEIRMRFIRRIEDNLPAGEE
UniProt Q5JTV8: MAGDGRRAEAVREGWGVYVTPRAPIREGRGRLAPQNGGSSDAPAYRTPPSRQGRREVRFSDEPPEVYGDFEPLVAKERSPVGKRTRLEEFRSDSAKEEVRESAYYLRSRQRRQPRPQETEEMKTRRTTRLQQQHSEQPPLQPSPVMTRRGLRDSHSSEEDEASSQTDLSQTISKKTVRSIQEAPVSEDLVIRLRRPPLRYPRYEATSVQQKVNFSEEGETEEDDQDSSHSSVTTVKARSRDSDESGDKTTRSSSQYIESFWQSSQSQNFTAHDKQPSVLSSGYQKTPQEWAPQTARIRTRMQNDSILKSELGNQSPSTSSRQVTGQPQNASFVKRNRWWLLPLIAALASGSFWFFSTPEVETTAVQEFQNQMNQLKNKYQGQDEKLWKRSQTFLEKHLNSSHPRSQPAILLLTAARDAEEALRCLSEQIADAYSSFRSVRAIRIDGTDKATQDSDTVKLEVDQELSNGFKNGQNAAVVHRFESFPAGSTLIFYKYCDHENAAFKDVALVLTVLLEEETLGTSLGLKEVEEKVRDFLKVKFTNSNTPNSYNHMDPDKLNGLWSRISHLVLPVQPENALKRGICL
UniProt Q15645: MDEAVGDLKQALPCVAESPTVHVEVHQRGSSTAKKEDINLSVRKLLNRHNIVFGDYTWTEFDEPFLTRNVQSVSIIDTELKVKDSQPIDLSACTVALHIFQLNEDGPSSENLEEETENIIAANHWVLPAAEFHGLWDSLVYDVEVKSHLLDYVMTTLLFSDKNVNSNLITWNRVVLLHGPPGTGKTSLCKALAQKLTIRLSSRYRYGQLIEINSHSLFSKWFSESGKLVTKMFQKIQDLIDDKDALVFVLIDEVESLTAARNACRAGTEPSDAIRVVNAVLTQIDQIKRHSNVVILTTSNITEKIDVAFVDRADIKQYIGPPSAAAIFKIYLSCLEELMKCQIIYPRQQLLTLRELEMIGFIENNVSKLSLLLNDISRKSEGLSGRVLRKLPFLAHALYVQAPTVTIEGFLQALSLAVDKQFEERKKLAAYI
UniProt Q9Y4A5, whole entry, looked up: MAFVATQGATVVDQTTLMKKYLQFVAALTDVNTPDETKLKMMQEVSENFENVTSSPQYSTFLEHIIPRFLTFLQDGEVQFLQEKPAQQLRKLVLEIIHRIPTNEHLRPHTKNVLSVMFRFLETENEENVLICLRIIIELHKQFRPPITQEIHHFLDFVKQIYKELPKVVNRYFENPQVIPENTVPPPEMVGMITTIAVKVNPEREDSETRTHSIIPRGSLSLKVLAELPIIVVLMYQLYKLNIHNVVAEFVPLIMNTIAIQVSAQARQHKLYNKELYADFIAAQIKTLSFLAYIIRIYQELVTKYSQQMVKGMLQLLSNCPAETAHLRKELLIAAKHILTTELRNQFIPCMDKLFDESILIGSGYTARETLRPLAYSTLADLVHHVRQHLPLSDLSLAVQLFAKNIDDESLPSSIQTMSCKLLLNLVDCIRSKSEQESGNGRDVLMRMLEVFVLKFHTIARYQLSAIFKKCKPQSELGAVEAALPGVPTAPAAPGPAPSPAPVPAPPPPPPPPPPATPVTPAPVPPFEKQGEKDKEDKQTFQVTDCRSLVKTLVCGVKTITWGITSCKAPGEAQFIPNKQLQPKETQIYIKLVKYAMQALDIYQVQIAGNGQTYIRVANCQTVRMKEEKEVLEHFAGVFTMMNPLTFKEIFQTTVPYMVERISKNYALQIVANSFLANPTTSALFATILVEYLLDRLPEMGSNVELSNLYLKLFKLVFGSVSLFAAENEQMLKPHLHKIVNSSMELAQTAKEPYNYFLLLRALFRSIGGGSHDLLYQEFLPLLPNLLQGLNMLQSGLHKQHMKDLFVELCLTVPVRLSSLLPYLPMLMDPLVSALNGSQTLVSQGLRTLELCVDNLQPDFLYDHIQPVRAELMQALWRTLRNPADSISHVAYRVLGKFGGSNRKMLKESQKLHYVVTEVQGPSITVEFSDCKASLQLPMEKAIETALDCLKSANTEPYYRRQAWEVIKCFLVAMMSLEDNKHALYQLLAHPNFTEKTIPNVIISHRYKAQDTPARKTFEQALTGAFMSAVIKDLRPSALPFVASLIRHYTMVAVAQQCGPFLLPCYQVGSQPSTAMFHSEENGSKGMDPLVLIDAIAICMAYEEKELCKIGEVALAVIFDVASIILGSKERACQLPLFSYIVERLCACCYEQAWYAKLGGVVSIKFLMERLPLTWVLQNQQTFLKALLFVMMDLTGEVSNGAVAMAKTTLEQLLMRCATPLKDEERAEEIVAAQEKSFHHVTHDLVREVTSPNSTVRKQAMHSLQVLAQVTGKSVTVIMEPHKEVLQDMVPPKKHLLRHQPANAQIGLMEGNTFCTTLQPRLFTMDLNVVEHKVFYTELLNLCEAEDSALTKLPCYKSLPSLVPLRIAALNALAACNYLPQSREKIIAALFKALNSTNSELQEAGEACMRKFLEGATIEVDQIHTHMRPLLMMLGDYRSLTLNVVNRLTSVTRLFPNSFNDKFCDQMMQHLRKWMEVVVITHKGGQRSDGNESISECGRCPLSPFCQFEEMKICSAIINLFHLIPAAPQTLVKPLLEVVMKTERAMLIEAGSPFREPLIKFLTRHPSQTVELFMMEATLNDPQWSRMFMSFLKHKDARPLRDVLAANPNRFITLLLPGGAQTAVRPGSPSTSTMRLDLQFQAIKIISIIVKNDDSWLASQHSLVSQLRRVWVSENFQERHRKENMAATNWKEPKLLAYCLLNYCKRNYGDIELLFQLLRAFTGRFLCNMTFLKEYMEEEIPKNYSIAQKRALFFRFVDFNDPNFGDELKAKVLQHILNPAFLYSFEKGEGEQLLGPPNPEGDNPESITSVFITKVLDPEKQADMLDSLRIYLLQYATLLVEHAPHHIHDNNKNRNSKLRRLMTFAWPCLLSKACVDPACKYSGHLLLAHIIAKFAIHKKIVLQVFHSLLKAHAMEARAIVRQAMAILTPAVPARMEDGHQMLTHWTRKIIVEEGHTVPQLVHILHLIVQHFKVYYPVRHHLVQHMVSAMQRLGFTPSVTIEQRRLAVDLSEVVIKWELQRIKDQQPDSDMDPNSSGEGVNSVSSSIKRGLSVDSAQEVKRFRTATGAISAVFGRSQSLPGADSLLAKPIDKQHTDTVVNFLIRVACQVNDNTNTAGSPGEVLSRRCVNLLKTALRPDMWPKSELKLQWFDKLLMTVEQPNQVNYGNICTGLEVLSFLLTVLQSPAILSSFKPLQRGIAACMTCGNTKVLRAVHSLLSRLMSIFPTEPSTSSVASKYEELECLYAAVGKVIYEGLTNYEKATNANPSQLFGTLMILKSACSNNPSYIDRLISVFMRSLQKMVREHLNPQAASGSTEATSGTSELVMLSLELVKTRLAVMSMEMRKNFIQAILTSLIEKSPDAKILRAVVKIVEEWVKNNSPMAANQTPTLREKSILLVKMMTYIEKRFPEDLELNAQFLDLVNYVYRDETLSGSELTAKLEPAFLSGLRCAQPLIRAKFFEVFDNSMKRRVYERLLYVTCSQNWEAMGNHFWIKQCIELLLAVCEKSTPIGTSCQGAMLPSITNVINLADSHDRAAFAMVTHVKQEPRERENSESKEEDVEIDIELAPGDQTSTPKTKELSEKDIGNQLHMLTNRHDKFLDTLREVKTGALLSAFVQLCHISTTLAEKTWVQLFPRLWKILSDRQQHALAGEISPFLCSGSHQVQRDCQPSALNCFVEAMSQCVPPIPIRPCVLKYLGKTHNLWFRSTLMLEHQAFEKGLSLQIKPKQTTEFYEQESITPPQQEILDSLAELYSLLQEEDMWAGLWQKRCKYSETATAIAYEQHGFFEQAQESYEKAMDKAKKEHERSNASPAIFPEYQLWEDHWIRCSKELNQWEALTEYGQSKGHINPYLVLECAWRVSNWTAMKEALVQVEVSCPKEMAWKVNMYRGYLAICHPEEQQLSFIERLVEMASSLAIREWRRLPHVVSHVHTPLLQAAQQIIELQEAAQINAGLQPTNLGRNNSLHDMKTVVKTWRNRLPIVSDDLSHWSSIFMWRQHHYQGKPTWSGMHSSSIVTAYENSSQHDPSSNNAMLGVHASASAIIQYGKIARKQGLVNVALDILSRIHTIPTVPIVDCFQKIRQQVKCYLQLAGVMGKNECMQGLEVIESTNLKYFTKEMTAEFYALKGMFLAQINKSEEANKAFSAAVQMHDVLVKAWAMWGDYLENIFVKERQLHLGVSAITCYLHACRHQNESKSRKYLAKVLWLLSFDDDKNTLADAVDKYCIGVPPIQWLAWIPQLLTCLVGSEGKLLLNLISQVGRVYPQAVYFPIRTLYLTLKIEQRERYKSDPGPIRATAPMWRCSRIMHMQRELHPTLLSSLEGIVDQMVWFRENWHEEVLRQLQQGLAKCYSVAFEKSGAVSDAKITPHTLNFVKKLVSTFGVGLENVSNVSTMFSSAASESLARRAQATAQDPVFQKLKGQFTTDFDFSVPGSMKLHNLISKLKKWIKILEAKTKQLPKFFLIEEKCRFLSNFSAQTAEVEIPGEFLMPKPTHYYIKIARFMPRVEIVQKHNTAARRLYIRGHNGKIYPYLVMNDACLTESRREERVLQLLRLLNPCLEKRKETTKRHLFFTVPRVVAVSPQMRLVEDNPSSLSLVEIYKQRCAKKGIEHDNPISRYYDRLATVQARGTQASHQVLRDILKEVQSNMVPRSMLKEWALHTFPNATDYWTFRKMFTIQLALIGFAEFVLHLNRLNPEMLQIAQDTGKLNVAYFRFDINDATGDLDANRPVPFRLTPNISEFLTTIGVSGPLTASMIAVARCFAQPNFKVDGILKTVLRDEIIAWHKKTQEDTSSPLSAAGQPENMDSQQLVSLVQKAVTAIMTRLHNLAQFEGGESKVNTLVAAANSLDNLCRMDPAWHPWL
UniProt O14656: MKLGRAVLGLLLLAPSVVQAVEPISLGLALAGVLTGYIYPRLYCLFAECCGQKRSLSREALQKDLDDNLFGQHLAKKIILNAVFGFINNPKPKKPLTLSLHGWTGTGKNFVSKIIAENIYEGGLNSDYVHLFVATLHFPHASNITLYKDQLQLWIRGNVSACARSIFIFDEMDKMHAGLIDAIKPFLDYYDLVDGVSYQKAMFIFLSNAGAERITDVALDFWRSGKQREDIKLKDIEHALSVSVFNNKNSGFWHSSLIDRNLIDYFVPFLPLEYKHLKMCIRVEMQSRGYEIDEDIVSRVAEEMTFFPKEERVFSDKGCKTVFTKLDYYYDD

Assays:
Experiment in all cases: log2 fold change, soluble protein after heating vs DMSO (PISA); higher = thermal stabilisation; K562 cells, 10 uM, 30 min; active = over 0.2 and 3.5 SD of the protein, either way, in both replicates (recomputed)
saracatinib = compound: CN1CCN(CCOc2cc(OC3CCOCC3)c3c(Nc4c(Cl)ccc5c4OCO5)ncnc3c2)CC1 [saracatinib]
Procedure, shortened: (§1)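 K562 cells at 2×10^6 cells/mL were treated for 30 min with 10 μM compound, and aliquots were heated for 3 min over 48°C-58°C before pooling. Extraction used PBS with 0.5% NP-40 at 4°C, and soluble protein was the supernatant after 21,000xg for 90 min, measured by TMTpro 16plex LC-MS/MS with channel sums equalised. Thermal stability values, relative to control samples and from duplicates, are log2 fold changes.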

sotrastaurin = compound: CN1CCN(c2nc(C3=C(c4c[nH]c5ccccc45)C(=O)NC3=O)c3ccccc3n2)CC1 [sotrastaurin]
Procedure, shortened: as §1

Tubastatin A = compound: CN1CCc2c(c3ccccc3n2Cc2ccc(C(=O)NO)cc2)C1 [Tubastatin A]
Procedure, shortened: as §1

[1] = compound: CNC(=O)C1=CC=CC=C1NC2=NC(=NC=C2Cl)NC3=C(C=C(C=C3)N4CCOCC4)OC
Procedure, shortened: as §1

defactinib = compound: CNC(=O)c1ccc(Nc2ncc(C(F)(F)F)c(NCc3nccnc3N(C)S(C)(=O)=O)n2)cc1 [defactinib]
Procedure, shortened: as §1

rucaparib = compound: CNCc1ccc(-c2[nH]c3cc(F)cc4c3c2CCNC4=O)cc1 [rucaparib]
Procedure, shortened: as §1

[2] = compound: CNc1nc(-c2ccc3c(N)n[nH]c3c2)cc(N2C[C@@H](C(=O)NC3CCCCC3)CC[C@H]2C)n1
Procedure, shortened: as §1

encorafenib = compound: COC(=O)N[C@@H](C)CNc1nccc(-c2cn(C(C)C)nc2-c2cc(Cl)cc(NS(C)(=O)=O)c2F)n1 [encorafenib]
Procedure, shortened: as §1

[3] = compound: COC(=O)[C@H](CCSC)NC(=O)C1=C(C=C(C=C1)NC[C@H](CS)N)C2=CC=CC=C2
Procedure, shortened: as §1

[4] = compound: COC1=CC=C(C=C1)CN2C=CC3=C2C=C(C=C3)C(=O)NO
Procedure, shortened: as §1

filanesib = compound: CON(C)C(=O)N1N=C(c2cc(F)ccc2F)S[C@@]1(CCCN)c1ccccc1 [filanesib]
Procedure, shortened: as §1

zotarolimus = compound: CO[C@H]1C[C@@H]2CC[C@@H](C)[C@@](O)(O2)C(=O)C(=O)N2CCCC[C@H]2C(=O)O[C@H]([C@H](C)C[C@@H]2CC[C@H](n3cnnn3)[C@H](OC)C2)CC(=O)[C@H](C)/C=C(\C)[C@@H](O)[C@@H](OC)C(=O)[C@H](C)C[C@H](C)/C=C/C=C/C=C/1C [zotarolimus]
Procedure, shortened: as §1

idasanutlin = compound: COc1cc(C(=O)O)ccc1NC(=O)[C@@H]1N[C@@H](CC(C)(C)C)[C@](C#N)(c2ccc(Cl)cc2F)[C@H]1c1cccc(Cl)c1F [idasanutlin]
Procedure, shortened: as §1

alisertib = compound: COc1cc(Nc2ncc3c(n2)-c2ccc(Cl)cc2C(c2c(F)cccc2OC)=NC3)ccc1C(=O)O [alisertib]
Procedure, shortened: as §1

[5] = compound: COc1cc2nc(-c3cc(F)ccc3O)nc(N[C@@H]3CNC[C@H]3C(C)(C)O)c2cc1OC
Procedure, shortened: as §1

gefitinib = compound: COc1cc2ncnc(Nc3ccc(F)c(Cl)c3)c2cc1OCCCN1CCOCC1 [gefitinib]
Procedure, shortened: as §1

[6] = compound: COc1cccc2cc(-c3nc([C@H]4CC[C@H](C(=O)O)CC4)n4ncnc(N)c34)[nH]c12
Procedure, shortened: as §1

lapatinib = compound: CS(=O)(=O)CCNCc1ccc(-c2ccc3ncnc(Nc4ccc(OCc5cccc(F)c5)c(Cl)c4)c3c2)o1 [lapatinib]
Procedure, shortened: as §1

pictilisib = compound: CS(=O)(=O)N1CCN(Cc2cc3nc(-c4cccc5[nH]ncc45)nc(N4CCOCC4)c3s2)CC1 [pictilisib]
Procedure, shortened: as §1

alvocidib = compound: CN1CC[C@H](c2c(O)cc(O)c3c(=O)cc(-c4ccccc4Cl)oc23)[C@H](O)C1 [alvocidib]
Procedure, shortened: as §1

Measured: log2 fold change

TRIP10 isoform 2 (UniProt Q15642)
inactive: saracatinib 0.021 | sotrastaurin 0.151 | Tubastatin A 0.051 | [1] -0.258 | defactinib -0.196 | rucaparib 0.071 | [2] -0.081 | encorafenib -0.147 | [3] -0.246 | [4] -0.032 | filanesib -0.213 | zotarolimus 0.013 | idasanutlin 0.128 | alisertib -0.029 | [5] 0.109 | gefitinib 0.062 | [6] -0.09 | lapatinib -0.083 | pictilisib 0.06

TPM2 (UniProt P07951)
inactive: saracatinib 0.177 | sotrastaurin -0.033 | Tubastatin A -0.012 | [1] 0.004 | defactinib 0.042 | rucaparib -0.027 | [2] -0.026 | encorafenib -0.006 | [3] 0.102 | filanesib -0.024 | zotarolimus 0.013 | idasanutlin -0.026 | alisertib -0.058 | [5] -0.055 | gefitinib -0.003 | [6] -0.14 | lapatinib 0.166 | pictilisib -0.181
active: [4] 0.503

TRMT10C (UniProt Q7L0Y3)
inactive: saracatinib -0.129 | sotrastaurin -0.013 | Tubastatin A -0.064 | [1] -0.024 | defactinib -0.055 | rucaparib -0.011 | [2] 0.042 | encorafenib 0.041 | [3] -0.056 | [4] -0.045 | filanesib -0.031 | zotarolimus 0.016 | idasanutlin -0.107 | alisertib -0.033 | [5] 0.018 | gefitinib 0.039 | [6] 0.005 | lapatinib -0.033 | pictilisib 0.007

TSEN2 (UniProt Q8NCE0)
inactive: saracatinib -0.014 | sotrastaurin -0.186 | Tubastatin A -0.024 | [1] -0.042 | defactinib -0.009 | rucaparib 0.007 | [2] -0.005 | encorafenib -0.068 | [3] -0.049 | [4] 0.018 | filanesib 0.043 | zotarolimus 0 | idasanutlin -0.065 | alisertib -0.075 | [5] 0.077 | gefitinib 0.028 | [6] 0.114 | lapatinib -0.015 | pictilisib 0.013

TRAPPC3 (UniProt O43617)
inactive: saracatinib 0.063 | sotrastaurin 0.001 | Tubastatin A -0.026 | [1] 0 | defactinib -0.072 | rucaparib -0.056 | [2] -0.014 | encorafenib 0.015 | [3] 0.013 | [4] -0.141 | filanesib -0.069 | zotarolimus -0.037 | idasanutlin -0.025 | alisertib -0.055 | [5] 0.012 | gefitinib 0.007 | [6] 0.067 | lapatinib 0.023 | pictilisib 0.023

TOR1AIP1 (UniProt Q5JTV8)
inactive: saracatinib 0.138 | sotrastaurin 0.139 | alvocidib 0.009 | rucaparib 0.06 | [2] -0.088 | encorafenib -0.129 | [4] 0.028 | filanesib -0.051 | zotarolimus -0.012 | idasanutlin 0.018 | alisertib -0.141 | [5] 0.121 | gefitinib -0.052 | [6] 0.015 | lapatinib -0.103 | pictilisib 0.064

TRIP13 (UniProt Q15645)
inactive: saracatinib 0.042 | sotrastaurin -0.027 | alvocidib -0.067 | Tubastatin A -0.071 | [1] -0.063 | defactinib -0.034 | rucaparib -0.016 | [2] -0.002 | encorafenib 0.027 | [3] -0.006 | [4] -0.01 | filanesib -0.127 | zotarolimus -0.002 | idasanutlin -0.053 | alisertib -0.104 | [5] -0.037 | gefitinib 0.015 | [6] 0.024 | lapatinib -0.007 | pictilisib -0.046

TRRAP (UniProt Q9Y4A5)
inactive: saracatinib 0.076 | sotrastaurin 0.035 | alvocidib 0.005 | Tubastatin A -0.031 | [1] -0.01 | defactinib -0.021 | rucaparib -0.01 | [2] -0.029 | encorafenib 0.01 | [3] 0.001 | [4] -0.037 | filanesib -0.011 | zotarolimus -0.016 | idasanutlin -0.048 | alisertib -0.069 | [5] -0.011 | gefitinib -0.022 | [6] 0.046 | lapatinib 0.03 | pictilisib -0.041

TOR1A (UniProt O14656)
inactive: saracatinib 0.038 | sotrastaurin 0.065 | alvocidib -0.005 | Tubastatin A 0.012 | [1] -0.001 | defactinib -0.003 | rucaparib -0.002 | [2] -0.038 | encorafenib -0.067 | [3] -0.023 | [4] 0 | filanesib 0.001 | zotarolimus -0.03 | idasanutlin -0.011 | alisertib 0.028 | [5] 0.015 | gefitinib 0.006 | [6] 0.1 | lapatinib -0.017 | pictilisib 0
